Results from PMC4600748.
No constants are given. Whether binding was seen depends on the method and setting. Binding seen in cells or lysates may run through a third protein. Sequences can lack the tags named with a protein.

Protein sequences, listed by entry. Tags and fused reporters are not part of them. Lines headed by an entry give the natural chain unless they say otherwise; changes in a name come on top. Residues count along the entry.
UniProt Q00657, 30-2326: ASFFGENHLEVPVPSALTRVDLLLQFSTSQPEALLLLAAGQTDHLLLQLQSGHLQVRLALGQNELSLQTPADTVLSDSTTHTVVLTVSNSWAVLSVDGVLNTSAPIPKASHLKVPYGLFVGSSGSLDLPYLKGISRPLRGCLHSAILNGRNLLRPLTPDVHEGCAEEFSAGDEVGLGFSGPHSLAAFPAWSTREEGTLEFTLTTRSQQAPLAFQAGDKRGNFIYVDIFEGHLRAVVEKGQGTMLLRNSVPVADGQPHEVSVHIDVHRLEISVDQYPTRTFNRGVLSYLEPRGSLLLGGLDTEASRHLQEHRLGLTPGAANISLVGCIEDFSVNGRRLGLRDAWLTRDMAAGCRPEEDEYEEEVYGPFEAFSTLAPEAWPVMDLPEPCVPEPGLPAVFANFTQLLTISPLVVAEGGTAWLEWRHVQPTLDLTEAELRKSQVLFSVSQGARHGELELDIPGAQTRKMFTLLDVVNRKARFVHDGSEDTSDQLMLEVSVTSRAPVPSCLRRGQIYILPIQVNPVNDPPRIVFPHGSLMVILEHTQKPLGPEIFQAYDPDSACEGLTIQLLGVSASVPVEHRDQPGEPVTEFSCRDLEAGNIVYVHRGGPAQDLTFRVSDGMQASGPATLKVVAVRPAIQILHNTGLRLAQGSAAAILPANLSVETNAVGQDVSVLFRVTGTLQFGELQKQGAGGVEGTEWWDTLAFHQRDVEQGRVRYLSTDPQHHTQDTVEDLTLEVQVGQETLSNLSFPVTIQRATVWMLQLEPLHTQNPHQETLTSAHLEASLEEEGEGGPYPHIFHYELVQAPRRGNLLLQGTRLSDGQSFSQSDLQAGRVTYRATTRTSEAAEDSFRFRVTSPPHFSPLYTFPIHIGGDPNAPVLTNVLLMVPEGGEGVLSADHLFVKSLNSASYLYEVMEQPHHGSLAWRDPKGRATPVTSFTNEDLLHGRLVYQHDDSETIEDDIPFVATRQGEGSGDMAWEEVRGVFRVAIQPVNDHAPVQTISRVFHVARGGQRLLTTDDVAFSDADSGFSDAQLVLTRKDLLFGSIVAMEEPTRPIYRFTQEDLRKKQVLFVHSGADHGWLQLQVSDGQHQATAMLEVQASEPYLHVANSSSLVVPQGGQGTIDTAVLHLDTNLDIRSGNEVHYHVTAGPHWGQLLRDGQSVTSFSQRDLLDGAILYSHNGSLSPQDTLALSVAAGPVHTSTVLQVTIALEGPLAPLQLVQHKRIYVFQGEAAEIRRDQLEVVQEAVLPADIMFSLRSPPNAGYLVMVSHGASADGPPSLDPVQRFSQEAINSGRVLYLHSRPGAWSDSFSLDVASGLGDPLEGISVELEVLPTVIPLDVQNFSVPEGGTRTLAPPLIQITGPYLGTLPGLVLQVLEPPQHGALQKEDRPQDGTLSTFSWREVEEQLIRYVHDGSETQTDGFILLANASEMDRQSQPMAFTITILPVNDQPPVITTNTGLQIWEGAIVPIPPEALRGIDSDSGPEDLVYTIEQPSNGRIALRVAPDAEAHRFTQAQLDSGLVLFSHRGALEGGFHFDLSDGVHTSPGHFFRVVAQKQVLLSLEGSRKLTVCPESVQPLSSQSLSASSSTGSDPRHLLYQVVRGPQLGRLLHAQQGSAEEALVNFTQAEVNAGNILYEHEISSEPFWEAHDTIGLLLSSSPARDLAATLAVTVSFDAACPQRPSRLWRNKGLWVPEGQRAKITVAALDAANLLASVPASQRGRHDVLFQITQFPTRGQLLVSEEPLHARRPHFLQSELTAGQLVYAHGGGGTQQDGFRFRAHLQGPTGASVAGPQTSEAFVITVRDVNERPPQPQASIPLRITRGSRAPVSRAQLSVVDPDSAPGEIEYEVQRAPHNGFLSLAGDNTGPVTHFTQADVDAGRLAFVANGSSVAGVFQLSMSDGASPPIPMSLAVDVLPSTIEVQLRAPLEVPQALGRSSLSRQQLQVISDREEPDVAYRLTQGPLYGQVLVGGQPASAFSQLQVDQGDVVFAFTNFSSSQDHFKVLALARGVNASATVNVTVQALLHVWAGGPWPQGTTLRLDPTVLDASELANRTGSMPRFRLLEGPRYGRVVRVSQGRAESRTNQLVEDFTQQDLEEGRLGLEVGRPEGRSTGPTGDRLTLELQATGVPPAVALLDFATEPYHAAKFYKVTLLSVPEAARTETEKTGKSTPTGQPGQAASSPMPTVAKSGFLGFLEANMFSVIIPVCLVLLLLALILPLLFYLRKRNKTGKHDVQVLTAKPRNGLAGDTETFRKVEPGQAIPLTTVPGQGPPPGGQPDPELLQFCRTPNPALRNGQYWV

Molecular target: NG2, full-length, overexpressed (UniProt Q00657)
Assay: co-IP; beads coupled to NG2-specific antibodies incubated with lysates of HEK293T cells overexpressing full-length NG2 and HA-tagged Stonin1 variants; immunoblot with NG2 and HA antibodies

B1: Stonin1-haemagglutinin (HA), full-length (protein, UniProt Q8CDJ8 1-730)
chain: MYSTNPGSWVTFDDDPAFQSSQKRKDFSLETQGVCRPNGLKLTLPTLRDPPSTPSSASSTPLSSPMVDFYFSPGPPSNSPLSTPTKDFPGFPGIPKAGTHVLYPIPECSSSSAPTTAGGVGPPLLLTKPDCSPHVSLPSSHSHTQPTPTLGFTEDAGPQRVQSEARQFEYFQDHCAFSNPFWKDEGSASPFPLDSLASRKPFSPKDKEVPIGHKSLTQCSLDYICEKLEHLHSAETQDPLGDLSMQDPYAGDTVSFVPHSLFRSQPRAGWSFMLRIPEKKNMMSSRQWGPIFLKVLPGGILQMYYEKGLEKPFKEFQLDPHCRLSEPKLENFSMAGKIHTVKVEHVSYSEKRKYHAKTEVVHEPEVEQMLKLGSTEHRDFLEFLTTVEEELIKLPATAKPKNKSYEEQEICLDIQDSLWGKVTKEGQLVESAVVTQICCLCFLNGPAECFLALNDRELQKRDECYFEKEPEKKGIAILDYHFHTCVKAEEFEQSRIIKFVPLDACRFELMRFKTSYEAGELPFAVKSVVTVQGAYVELQAFVNMTPAAQGSPHAGALRSCNNIMIHFPVPAQWIKALWTRNLQRQKSLKAKMNRRACLGSLQEPESEPVIQVTVGSAKYESAYRAVVWKIDRLPDKNSSPDQPHCLSYKLELGSDQEVPSDWYPFATVQFSMLEACASRTEVRSLGVESDAQPQKHVCQRACYNIQVEIEKKWIQVDGEDADKTGGCVTQ
With B1 the binding was “no binding”.
